Test results published in paper PMC11775523.
For at least one entry, the source does not settle the construct or the ends of the probe. At least one result comes from cells or an extract, where the contact may be indirect. A negative result means that nothing was seen under these conditions. At least one verdict rests on a figure or table, not on a statement of the authors.

Amino acid sequences for entries named in this document (tags omitted). Residues count along the entry.
UniProt Q13308, 31-1070: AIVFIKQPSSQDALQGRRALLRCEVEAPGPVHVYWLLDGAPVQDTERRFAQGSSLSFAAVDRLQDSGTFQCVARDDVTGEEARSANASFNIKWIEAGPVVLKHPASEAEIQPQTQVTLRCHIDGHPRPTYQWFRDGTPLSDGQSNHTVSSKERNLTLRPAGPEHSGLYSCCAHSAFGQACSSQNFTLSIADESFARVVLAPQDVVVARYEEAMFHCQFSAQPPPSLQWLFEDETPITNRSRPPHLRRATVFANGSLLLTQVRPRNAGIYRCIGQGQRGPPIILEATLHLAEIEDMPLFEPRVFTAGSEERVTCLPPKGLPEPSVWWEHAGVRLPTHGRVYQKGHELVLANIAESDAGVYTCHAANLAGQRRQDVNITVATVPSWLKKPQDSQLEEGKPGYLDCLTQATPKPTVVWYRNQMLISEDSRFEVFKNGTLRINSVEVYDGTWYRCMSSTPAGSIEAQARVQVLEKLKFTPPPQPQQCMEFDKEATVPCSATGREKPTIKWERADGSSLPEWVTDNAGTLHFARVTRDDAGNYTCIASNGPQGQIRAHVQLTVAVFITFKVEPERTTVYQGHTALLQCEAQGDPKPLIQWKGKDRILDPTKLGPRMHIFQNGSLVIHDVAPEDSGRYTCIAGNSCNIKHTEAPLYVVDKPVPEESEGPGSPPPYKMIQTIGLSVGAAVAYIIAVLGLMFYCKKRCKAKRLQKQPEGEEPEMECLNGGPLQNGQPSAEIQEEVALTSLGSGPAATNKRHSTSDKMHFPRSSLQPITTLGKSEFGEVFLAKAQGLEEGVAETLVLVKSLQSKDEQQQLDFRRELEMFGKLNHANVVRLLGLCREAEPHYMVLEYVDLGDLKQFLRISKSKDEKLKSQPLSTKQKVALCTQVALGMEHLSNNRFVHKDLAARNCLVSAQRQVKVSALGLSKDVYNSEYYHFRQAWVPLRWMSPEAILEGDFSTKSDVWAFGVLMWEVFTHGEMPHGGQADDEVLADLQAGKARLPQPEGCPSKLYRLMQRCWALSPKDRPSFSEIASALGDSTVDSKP

Target: PTK7 on HCT116 cells (UniProt Q13308)
Test: confocal microscopy and flow cytometry on cells
Details: Cells: Dulbecco's PBS, 5 mM MgCl2, 4.5 g/L glucose, 0.1 mg/mL yeast tRNA, 1 mg/mL BSA, 4 C or on ice, 30 min, protein on the cell surface

“AACCGATAAAATAAGAGCCGAAGCGTAGATTACCAGTGTAT [LSgc8 (control library chain)]”: no binding (HCT116 cells, control chains 'hardly bind'; Results text: 10 uM into 1 uM), label: 5'-Cy5, single-stranded DNA).
“ATCTAACTGCTGCGCCGCCGGGAAAATACTGTACGGTTAGA [Sgc8 (S01)]”: binds (HCT116 cells, 5 mM MgCl2, Kd only in figure; Results text: 10 uM into 1 uM), folded or branched DNA).
